{"source": "PubChem BioAssay AID652259, Drosophila RNAi Screening Center | 2013", "aim": "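Genome-wide hunt for genes that control Wingless pathway activity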 (primary screen)", "cells": "Drosophila clone 8 imaginal disc epithelial cells", "reagents": "long dsRNA against Drosophila genes", "treatment": "pathway stimulated by co-transfected Wingless expression plasmid", "measured": "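Dual luciferase reads per well after Wingless plasmid stimulation: reporter firefly light and Renilla control light; activity is firefly divided by Renilla, a ratio not deposited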", "reading the numbers": "firefly reporter light: higher = more Wg reporter light, before normalisation; Renilla control light: higher = more transfected or surviving cells", "active means": "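a knock-down is a candidate when at least two out of four statistical tests show it departing from its plate mean; one test alone signals a weak candidate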", "calls": "active = candidate regulator (raises or lowers reporter); inactive = not a candidate", "note": "In all, the deposit lists about 22,000 reagents; below is an unselected part of those with a known target gene and a result. Of all reagents, 233 (1.1%) are marked active. 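Light values are raw, unnormalised plate reads; the ratio scores behind the reporter calls were not deposited.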 Entries without a mark were called inactive. The numbers tell different reagents against one gene apart. The record does not give: the amount of reagent, the time to read-out, the dose of the treatment."}
{"gene": "Acp53C14c", "reagent no.": 1, "firefly reporter light, replicate 1": 17984, "Renilla control light, replicate 1": 12156}
{"gene": "CG2225", "reagent no.": 1, "firefly reporter light, replicate 1": 7563, "Renilla control light, replicate 1": 2132}
{"gene": "CG2225", "reagent no.": 2, "firefly reporter light, replicate 1": 2971, "firefly reporter light, replicate 2": 7817, "Renilla control light, replicate 1": 645, "Renilla control light, replicate 2": 2900}
{"gene": "CG31457", "reagent no.": 1, "firefly reporter light, replicate 1": 8.13e5, "firefly reporter light, replicate 2": 7.94e5, "Renilla control light, replicate 1": 4.58e5, "Renilla control light, replicate 2": 1.37e5}
{"gene": "CG43253 (retired record)", "reagent no.": 1, "firefly reporter light, replicate 1": 3137, "Renilla control light, replicate 1": 1574}

Continued, starting with the last 2 of the part before.
{"gene": "CG31457", "reagent no.": 1, "firefly reporter light, replicate 1": 8.13e5, "firefly reporter light, replicate 2": 7.94e5, "Renilla control light, replicate 1": 4.58e5, "Renilla control light, replicate 2": 1.37e5}
{"gene": "CG43253 (retired record)", "reagent no.": 1, "firefly reporter light, replicate 1": 3137, "Renilla control light, replicate 1": 1574}
{"gene": "Osi7", "reagent no.": 1, "firefly reporter light, replicate 1": 15952, "Renilla control light, replicate 1": 3844}
{"gene": "Tango9", "reagent no.": 1, "firefly reporter light, replicate 1": 8755, "Renilla control light, replicate 1": 2869}
{"gene": "Srp54", "reagent no.": 1, "firefly reporter light, replicate 1": 5667, "Renilla control light, replicate 1": 2154}
{"gene": "CG13895", "reagent no.": 1, "firefly reporter light, replicate 1": 4552, "Renilla control light, replicate 1": 2715}
{"gene": "Hsepi", "reagent no.": 1, "firefly reporter light, replicate 1": 3256, "firefly reporter light, replicate 2": 8166, "Renilla control light, replicate 1": 1148, "Renilla control light, replicate 2": 3200}
{"gene": "CG14422", "reagent no.": 1, "firefly reporter light, replicate 1": 22135, "Renilla control light, replicate 1": 21266}
{"gene": "kmg", "reagent no.": 1, "firefly reporter light, replicate 1": 2108, "firefly reporter light, replicate 2": 6226, "Renilla control light, replicate 1": 833, "Renilla control light, replicate 2": 2696}
